Measurements: article PMC5712553, “A Novel TetR Family Transcriptional Regulator, CalR3, Negatively Controls Calcimycin Biosynthesis in Streptomyces chartreusis NRRL 3882”
The exact form of at least one protein or probe is not confirmed. The comparison behind a weaker result is the experiment's own reference, which may not be listed here. Tags and fusion partners may be left off the protein sequences shown.

Biological target: T1, CalR3 (Streptomyces chartreusis NRRL 3882) (UniProt F8QZR9)
T1 sequence (looked up, limits assumed): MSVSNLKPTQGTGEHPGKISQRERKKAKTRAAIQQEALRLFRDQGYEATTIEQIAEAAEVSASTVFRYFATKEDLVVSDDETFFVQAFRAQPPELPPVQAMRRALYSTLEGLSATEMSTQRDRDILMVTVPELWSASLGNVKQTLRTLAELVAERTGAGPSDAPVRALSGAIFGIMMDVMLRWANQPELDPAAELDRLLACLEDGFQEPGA
Test: EMSA
Settings: EMSA: 20 mM Tris-Cl pH 8.0, 100 mM KCl, 10 mM DTT, 37 C, 30 min, 20 ul, recombinant protein, protein details: N-terminal His6 (pET28a), probe letters rebuilt from the primers and the genome

Measured: binding result

CCAGCCGGTAAAGAGCGAGCCTCATGACAGGCAACCTTCTTTTAGGAGTCGACTTTCAATTGATAGCCTACTAGCACTTTGAGGAGATGAGAACTCCTCCTCGCTGCCACC (double strand) [T-R3L]
binds more weakly: WT fermentation supernatant extract | calcimycin (1.9 mM), dissociates CalR3 | cezomycin (0.95 mM), dissociates CalR3
